Assay results published in paper PMC7912637.
No constants are given. Whether binding was seen depends on the method and setting. Binding seen in cells or lysates may run through a third protein. Some results given as binding are weak or reduced against the parent protein; the word gives no strength.

The chains behind the UniProt entries cited, without tags or fusion partners.
UniProt P22366: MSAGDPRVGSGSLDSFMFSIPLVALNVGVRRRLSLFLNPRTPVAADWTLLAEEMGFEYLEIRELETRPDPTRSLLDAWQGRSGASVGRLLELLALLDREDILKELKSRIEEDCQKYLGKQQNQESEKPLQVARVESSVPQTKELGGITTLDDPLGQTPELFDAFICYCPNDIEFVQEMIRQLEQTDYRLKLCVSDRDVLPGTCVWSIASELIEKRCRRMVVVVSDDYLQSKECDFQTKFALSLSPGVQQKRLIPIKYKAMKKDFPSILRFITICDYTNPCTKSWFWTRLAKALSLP

Molecular target: T1, interleukin-1 receptor associated kinase 4 (mouse (endogenous in SIM-A9)) (UniProt Q8R4K2)
T1 sequence: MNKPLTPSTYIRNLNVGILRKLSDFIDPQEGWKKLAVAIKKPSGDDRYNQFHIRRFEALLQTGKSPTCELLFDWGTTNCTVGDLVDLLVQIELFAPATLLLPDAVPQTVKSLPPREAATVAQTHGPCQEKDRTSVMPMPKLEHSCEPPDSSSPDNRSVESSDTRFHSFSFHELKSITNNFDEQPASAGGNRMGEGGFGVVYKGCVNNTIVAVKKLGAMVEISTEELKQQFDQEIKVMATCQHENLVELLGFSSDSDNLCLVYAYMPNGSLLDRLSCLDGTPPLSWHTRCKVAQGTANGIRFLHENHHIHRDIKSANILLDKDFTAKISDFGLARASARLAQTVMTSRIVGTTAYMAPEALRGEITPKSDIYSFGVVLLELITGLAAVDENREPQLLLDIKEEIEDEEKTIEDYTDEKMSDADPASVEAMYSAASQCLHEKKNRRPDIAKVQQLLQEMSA
Assay: co-IP; SIM-A9 cell homogenates (normoxia control, 4 h OGD, OGD + LPS or OGD + IL-4, 24 h after stimulation); 15 ug anti-IRAK4 or anti-MyD88 antibody or IgG control added to crude protein (0.5-1 mg/mL) in PBST, protein G PLUS-Agarose, 4 °C; Western blot

Substance: MyD88 (from UniProt P22366 1-296)
- binding: binds
